Some entries share one result that the patent states for a list of compounds. At least one structure is not confirmed: it was looked up by name or label, or the drawing left a doubt.
Test system: CFA-induced mechanical hyperalgesia in mice
Test: CFA-induced mechanical hyperalgesia in mice
Format: in vivo, mouse
Details: endocytic inhibitor i.t. 36 h after CFA
Excerpt: Investigators were unaware of test agents.

SMILES	time of partial reversal of CFA hyperalgesia
O=C(N/N=C/c1cc(O)c(O)cc1O)c1cc2ccccc2cc1O [Dy4]	1 to 5 h
O=C1NC(=NS(=O)(=O)c2cccc3ccccc23)S/C1=C\c1ccc(Br)cc1 [PS2]	1 to 5 h
